# Measurements: paper PMC10877577 (ACS Chemical Biology, 2024)
# B1: aMinoC1: anti-minocycline single-domain antibody clone 1 from immunized alpaca, tested as sdAb-Fc (antibody, V domains shown)
# VH: QVQLESGGGLVQPGSSLRLSCAASGRTFSSYNIGWFRQAPKEREFVAAISWSGARTYYADSVKGRFTISRDNAKNTVYLQMNSLKPEDTAVYSCAAGRGWGTEAILDYWGQGTQVSSA
# Assay: Isothermal titration calorimetry of aMinoC1 binding to minocycline
# Conditions: PEAQ-ITC, one set of sites
# Protocol: ITC measurements were performed using the PEAQ-ITC nonautomated (MicroCal) at 25 °C. The antibody sample was dialyzed overnight using 5 L of PBS (20 mM Na3PO4, 150 mM NaCl, pH 7.4). […] The concentration of the anti-minocycline sdAb (as murine IgG2a Fc fusion) was determined using extinction coefficients ε280 nm = 31,065 M^–1 cm^–1.
molecule,measurement,value
B1,N (sites),2.17 ±2.0e-2
